{
  "source": "patent US4797479A",
  "about": "“Nucleoside-phospholipid conjugate” (Toyo Jozo Kabushiki Kaisha, priority 1985, dated 1989)",
  "note": "Some entries share one result that the patent states for a list of compounds.",
  "data": [
    {"tested_on": "mice", "assay": "Acute toxicity / mortality in mice", "format": "in vivo", "conditions": "150 mg/kg body weight", "values": [
      {"compound": "CCCCCCCCCCCCCCCC(=O)OC[C@H](COP(=O)(O)OC[C@H]1O[C@@H](n2cc(F)c(=O)[nH]c2=O)C[C@@H]1O)OC(=O)CCCCCCCCCCCCCCC", "note": "[Example 5]", "acute toxicity": "No acute toxicity"},
      {"compound": "CCCCCCCCCCCCCCCC(=O)OC[C@H](COP(=O)(O)OC[C@H]1O[C@@H](n2cnc(C(N)=O)c2O)[C@H](O)[C@@H]1O)OC(=O)CCCCCCCCCCCCCCC", "note": "[Example 6]", "acute toxicity": "No acute toxicity"},
      {"compound": "CCCCCCCCCCCCCCCC(=O)OC[C@H](COP(=O)(O)OC[C@H]1O[C@@H](n2ccc3c(N)ncnc32)[C@H](O)[C@@H]1O)OC(=O)CCCCCCCCCCCCCCC", "note": "[Example 7]", "acute toxicity": "No acute toxicity"},
      {"compound": "CCCCCCCCCCCCCCCC(=O)OC[C@H](COP(=O)(O)OC[C@H]1O[C@@H](n2cc(F)c(N)nc2=O)[C@H](O)[C@@H]1O)OC(=O)CCCCCCCCCCCCCCC", "note": "[Example 8]", "acute toxicity": "No acute toxicity"}
    ]}
  ]
}
